# Measurements taken from publication PMC7042691.
# Results are given in words; binding and its absence hold for the method and conditions named. Binding seen in cells or lysates may run through a third protein. A yes stands for co-enrichment or nearness to the bait. Other partners may have been found. Sequences can lack the tags named with a protein.
# T1: GFP::PfK13 (Plasmodium falciparum Kelch 13 protein, N-terminally tagged with 2xFKBP-GFP-2xFKBP) (Plasmodium falciparum) (UniProt Q8IDQ2)
# T1 sequence: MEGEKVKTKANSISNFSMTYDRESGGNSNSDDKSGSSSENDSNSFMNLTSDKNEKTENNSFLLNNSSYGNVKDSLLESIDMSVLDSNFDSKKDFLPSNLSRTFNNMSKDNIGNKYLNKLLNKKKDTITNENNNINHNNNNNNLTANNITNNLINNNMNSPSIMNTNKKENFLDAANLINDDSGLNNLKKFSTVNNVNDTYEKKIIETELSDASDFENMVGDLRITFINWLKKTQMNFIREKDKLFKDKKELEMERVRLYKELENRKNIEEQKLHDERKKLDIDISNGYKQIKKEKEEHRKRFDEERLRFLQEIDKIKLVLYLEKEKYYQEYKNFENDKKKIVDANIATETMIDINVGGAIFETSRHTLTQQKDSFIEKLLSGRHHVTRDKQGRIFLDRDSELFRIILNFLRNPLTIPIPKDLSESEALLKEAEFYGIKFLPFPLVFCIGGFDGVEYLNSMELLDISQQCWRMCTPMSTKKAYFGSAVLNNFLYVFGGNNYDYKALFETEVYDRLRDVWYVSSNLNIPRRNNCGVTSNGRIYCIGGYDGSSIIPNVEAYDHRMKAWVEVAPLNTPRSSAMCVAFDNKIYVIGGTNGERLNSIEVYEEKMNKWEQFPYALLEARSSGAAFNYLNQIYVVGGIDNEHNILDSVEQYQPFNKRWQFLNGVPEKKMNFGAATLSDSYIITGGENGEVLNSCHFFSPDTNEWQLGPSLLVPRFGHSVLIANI
# B1: 26S protease regulatory subunit 6B (protein, UniProt Q8I1V1 1-392)
# chain: MESVSKCLTEEDYYIRLKNLKKQIDILNIQEDYIKEEHKNLKRELIRSKNEIKRIQSVPLIIGQFLDIIDNNYGIVSSTAGSNYYVRILSTLNKEDLKPSVSVALHRHSHSIVNILPSESDSSIQLLQITERPNVKYTDLGGLDMQKQEMKEAVELPLTCPELYEKIGIEPPMGILIYGPPGTGKTMLVKAVANETQVTFIGVVGSEFVQKYLGEGPRMVRDVFRLARENSPSIIFIDEVDAIATKRFDAQTGADREVQRILLELLNQMDGFDKSTNVKVIMATNRADTLDPALLRPGRLDRKIEFPLPDRKQKRLIFQTIISKMNVSSDVNIESFVVRTDKISAADIAAIAQEAGMQAIRKNRYIITANDFEQGYRTHVRKQLRDYEFYNI
# B2: Protein DJ-1 (protein, UniProt C6KTB1 1-189)
# chain: MSGKKTALVAVASGSEDVEYITVVDVLRRAGVHVTTASVEKSEQVCLQSKNVVLADTTISKVRNNIYDVLVIPGGMKGSNTISECSEFIDMLKEQKANNRLYAAICAAPETVLDRHSLIDDVEAVAYPSFERNFKHIGKGRVCVSKNCITSVGPGSAVEFGLKIVEHLLGRQVALSLASGFLLHPAVTF
# B3: Acyl coenzyme A synthetase (protein, UniProt Q8I3L4 1-673)
# chain: MDNGNNEILYSVKISEPRDKNSTGIYRHPEYKDKLCENFDDKKFNNMWEVFDRVSTKFKERDCMGVREKLEDNKRGAYQWKNFGEVKELIMKVGSGLLNMNACPLIMCDDQRIPKARFLGLYMPNCPEWNICDLGCNAYNIITVPLYDSLGPQSSRFILDQTQMETIVCDKTCARNLFKSLETCEEIYLKTLILVDEIDDEIKKECSKYNLKIILWEELIKQGEKKIVKVPQGALNNIFSICYTSGTTGYPKGVIMTNRNFIGILAAAYIGPSRLPDLCINENDIHISYLPLAHIYERLMIYLFMAHGVKVGYYSGNVQTLLEDIQELKPTLFISVPRLYNRIHERIFNSLKKKSGLVQSLFNKGLQNKIKRLSSSGSTTHVLWDKLLFNKAKKILGGHVRAMLNGSAPISVDVVKKLRTIFCVPMFEGYGMTESLGASFITHSQDRNIGHIGGPVPCIEFKLVSVPEMNYLVTDNPPKGELYLRGPSTCNLGYFKLEKETNELLEKDGFIRTGDIALLSPNGSLTIIDRKKNIFKLAQGEYVAVEKVEASYKQSLFISQIFVFGYSYESVLVCVICPSTDSIDIWRTQKKIKATDEEVIKLPEFKADVINDLTSIGKKDGLKGFEQIKDIHFTLEAFTIENDLMTPTGKIKRHEAKKRFKKEIDEMYEKLKQ
# B4: S-Adenosylmethionine synthase (protein, UniProt Q7K6A4 1-402)
# chain: MSQLKIKRGNFLFTSESVNEGHPDKICDQISDAILDSCLREDPYSKVACEVCAKKNYIFIFGEITTKAKVNYDKVTRDVLKHIGYDDESKGLDYKTAEIKVSIDEQSPDIAQCVHENRSPELIGAGDQGIMFGYATDETENYMPLTHHYATLLGKRLTEVRKLGILPYLGPDGKTQITIEYKNKGSCGGHLEPLRVHTVLISTQHAEDIKYEQLKTDLMENVIKYVIPEKLLDNETLYYLNPSGKFVLGGPAADAGLTGRKIICDTYGGWGAHGGGAFSGKDASKVDRSAAYYLRFIAKSLVANKFCRRVLVQASYSIGIANPISLNVNSYGTVSTGYTDYDLEQIILRNFDLRPGFIIQELKLTEPVFSKTSAYGHFGREGDTFTWEKIKDLSHEKNALKN
# B5: T-complex protein 1 subunit gamma (protein, UniProt Q8I5C4 1-542)
# chain: MLKNPGTVLVFKPNTKREEGRKTQLSNIQASRAVSDIVKTTLGPMAMLKMMLDPLGGIVITNDGNCILREVDVAHPAAKSLIELSRSQDEEVGDGTTSVVILSGELLSVAETFLRQNIHPTIIVNCYMNALDSSLKFLEEISIDIDVNSESDLLKAIDSCLSTKFVNRYNKIVSKLALEATRCVKMDNLMGRKEIDIKRYAKVEKIPGGDITDSYVLKGVMINKDITHPKMRRYIKNPRILLLDCTLEYKKAESQTNVEILDEKTWNELLLQEEIEVKKMCEYIIDSKCDIVITEKGVSDLAQHFLVKKNISVIRRVRKTDLNRLERISGATIVNRCEEIVEGDIGTKCGLFEIKKIGDDYYSFFVECKDPHACTILLRGSTKDVLNEIERNLHDGMNVAKNILMEGKLLYGGGCTEIRVGQYLIKEAAKFNDSRKSITEAVASALEIIPKILAQNSGVNVVKTMNELRIKHEQEGGQEFGIDGITGDIIKVTTKNIWDLLSVKKQIYKSAIEAASMILRIDDVVSGVGKDEKVQKTIKNEF
# B6: High-molecular-weight rhoptry protein 2 (protein, UniProt C0H571 20-1378)
# chain: LELNEKVSIKYGAEQGVGSADSNTKLCSDILKYLYMDEYLSEGDKATFEKKCHNVIGNIRNTFSNKNTIKEGNEFLMSILHMKSLYGNNNNNNAGSESDVTLKSLYLSLKGSQNTEGESEVPSDDEINKTIMNFVKFNKYLLDNSNDIKKVHDFLVLTSQSNENLLPNKEKLFEQIVDQIKYFDEYFFASGGKIKVKKGYLKYNFLDIYKQPVCSAYLHLCSRYYESVSIYIRLKKVFNGIPAFLDKNCRKVKGEEFKKLMDMELKHNHIVERFDKYIISDDLYYVNMKVFDLKNVDKIQVSKIDDINNLNIYEHKETMHLSAKNLSRYIDIKKELNDEKAYKQLMSAIRKYVTTLTKADSDITYFVKQLDDEEIERFLIDLNFFLYNGFLRITEDKHLINADDVSPSYINLYRSNNIVALYILKTQYEENKLSEYRAHKFYRRKRVSNITNDMIKKDFTQTNALTNLPNLDNKKTTEYYLKEYENFVENFQPDLHDIMKLQLFFTMAFKDCNVNQNFTETSKKLWFDLLYAYDKFGWFYIHPNEVINSINKTDFVRHVLVSRNFLLKNNDQLTFLETQVAKIVEIINLSLEVDKSPDSLDFSIPMNFFNHKNGYHVMNDDKLKLLTSYEYIDSIANNYFFLSEYKNDVFRTGNNFKLYFNLPNIYSLAYQLFNELAININVITNVPLKKYLKYNASYAYFTLMNMIGKNHDIYSKGSRFVYASYILGLVFFIESHIDIARLKPKDFFFMKQSLPIIDHVYHKDLKTLKKNCTLLTDFMKINKNSQNYSLTHTEEMIKILGLLTVTLWAKEGKKSVYYDDDVSLYRKLMVSCVFNGGETIQEKLANNIEKSCDISQYGIKSKNLKDMIDINLSIHKWNPAEIEKLAYSFVLSCKMQKLMYKPMNVEKLPLEDYYKLSLAPDMVKTYHCYKLGKQAAELLESIILKKKFVRFRVTDAIDVYDFFYIKKVLSSRIKKEYNEFLQDKRAFEKKELETILNNSPFSEEQTMKLINSYECHWFTSYENFRILWMHASSNLGTGTYLKNFFSELWQNIRFLFKSKLKIRDMEYFSGDISQMNLLDYYSPMVHSESHCQEKMQVLFITLRDSKEENRSEIAQKVKSAYYQCKLDYYKNHHSDFIHRIHPNDFLNNKVYVLKQPYYLMSNVPLNNPKKVSRLFVTEGTLEYLLLDKINIPECFGPCTKLHFNKVVIKESKQRIYDMTINNALVPEIQPYNRRKYMTIYINEAYIKNIVSDALTSEEIKRHDIQKGNIKICMGKSTYLTEPILTEEHFNLTHKPVYDFSSVKHNLKVFHMKNEHLVSEDPNDDCFINYPLATINLDISDPYKEISEDLIKNLYILKSS
# B7: 60S ribosomal protein L12 (protein, UniProt Q8I3T8 1-165)
# chain: MAKKPDPNEIKYVFIRQVGGEVGASSVLSPKLGPLGLSPKKVGDDIAKETQSWKGLKICVKLTIQNRQAKVEVVPTSAALILKELNEAPRDRKKVKNIKHNGNLKLEQVYSIARVMKEKSRAKEFKGTVKEMLGTCNSIGCTVDGKKPTTIQEMIDSGEIDVPLE
# B8: 40S ribosomal protein S16 (protein, UniProt Q8IAX5 1-144)
# chain: MTTKVKRVQTFGKKKTAVAVATVTNGKGLIKLNGKNLDLVEPYILKTKVYEPLWLIGSGKLKNLDIRIRVKGGGQTSQIYAIRQAIGKGIISYYQKYVDESTKKELKDVLLRYDRSLLVGDTRRCEPKKFGGKGARARYQKSYR
# B9: 14-3-3 protein (protein, UniProt C0H4V6 1-262)
# chain: MATSEELKQLRCDCTYRSKLAEQAERYDEMADAMRTLVEQCVNNDKDELTVEERNLLSVAYKNAVGARRASWRIISSVEQKEMSKANVHNKNVAATYRKKVEEELNNICQDILNLLTKKLIPNTSESESKVFYYKMKGDYYRYISEFSCDEGKKEASNCAQEAYQKATDIAENELPSTHPIRLGLALNYSVFFYEILNQPHQACEMAKRAFDDAITEFDNVSEDSYKDSTLIMQLLRDNLTLWTSDLQGDQTEEKSKDEGLE
# B10: 60S acidic ribosomal protein P0 (protein, UniProt Q8II61 1-316)
# chain: MAKLSKQQKKQMYIEKLSSLIQQYSKILIVHVDNVGSNQMASVRKSLRGKATILMGKNTRIRTALKKNLQAVPQIEKLLPLVKLNMGFVFCKDDLSEIRNIILDNKSPAPARLGVIAPIDVFIPPGPTGMDPSHTSFFQSLGISTKIVKGQIEIQEHVHLIKQGEKVTASSATLLQKFNMKPFSYGVDVRTVYDDGVIYDAKVLDITDEDILEKFSKGVSNVAALSRATGVITEASYPHVFVEAFKNIVALIIDSDYTFPLMENIKKMVENPEAFAAVAAPASAAKADEPKKEEAKKVEEEEEEEEDGFMGFGMFD
# B11: 40S ribosomal protein S3a (protein, UniProt O97313 1-262)
# chain: MAVGKNKRTSKGKKGGKKKVTDVFTKKEWYDLKAPKMFLVRNFGKTLVTKTIGKKLATDSLKGRIYEVNLADLNNDEDQAHKKIKLSCDHIINRDCYTDFCGLSITRDKLCSLIRKGYTLIEGHTDVKTLDNYHLRMFCIAFTKKRQNQTKSTCYAQTSQIKKIRKKMVDIMTAEASKVLLKDLVKKFIPESIGKEIEKQCKKIYPLQNVLIRKVKILKRPKLDISKLMELHTDPKEESGKNVNALPESKEATNILTAELKH
# B12: 40S ribosomal protein S19 (protein, UniProt Q8IFP2 1-170)
# chain: MAEQFTEDIGVVNKRLLEPVPFVKTNNCIKDVDADLFIRSYATHLKLHNKITYPKWCTFVKTGKGRKLAPLNEDWYFIRASSILRRLYLHPDIGVGFLRRQFSSKQRRGVAPNHTSLASGKILRSILQQLENLGYVEQNPKKKGRRLTTKGENAINNFARYINKKVYNKE
# Target: T1, GFP::PfK13 (Plasmodium falciparum Kelch 13 protein, N-terminally tagged with 2xFKBP-GFP-2xFKBP) (Plasmodium falciparum)
# Test: affinity purification with mass spectrometry; GFP-Trap beads incubated with lysate of asexual blood-stage GFP::PfK13 parasites (30 mM Tris pH 7.5, 150 mM NaCl, 0.5 mM EDTA, 0.5% NP-40) for 4 h or overnight at 4°C; 3D7 parasites as control; LC-MS/MS; proteins common to three biological replicates, FDR 1%
row,Binder,binding
1,B1,binds
2,B2,binds
3,B3,binds
4,B4,binds
5,B5,binds
6,B6,binds
7,B7,binds
8,B8,binds
9,B9,binds
10,B10,binds
11,B11,binds
12,B12,binds
